# Measured values reported in publication PMC4375495 (The Journal of Biological Chemistry, 2015).
# Sequences of proteins named here, by UniProt entry; tags and fusion partners are left off.
# UniProt P27986: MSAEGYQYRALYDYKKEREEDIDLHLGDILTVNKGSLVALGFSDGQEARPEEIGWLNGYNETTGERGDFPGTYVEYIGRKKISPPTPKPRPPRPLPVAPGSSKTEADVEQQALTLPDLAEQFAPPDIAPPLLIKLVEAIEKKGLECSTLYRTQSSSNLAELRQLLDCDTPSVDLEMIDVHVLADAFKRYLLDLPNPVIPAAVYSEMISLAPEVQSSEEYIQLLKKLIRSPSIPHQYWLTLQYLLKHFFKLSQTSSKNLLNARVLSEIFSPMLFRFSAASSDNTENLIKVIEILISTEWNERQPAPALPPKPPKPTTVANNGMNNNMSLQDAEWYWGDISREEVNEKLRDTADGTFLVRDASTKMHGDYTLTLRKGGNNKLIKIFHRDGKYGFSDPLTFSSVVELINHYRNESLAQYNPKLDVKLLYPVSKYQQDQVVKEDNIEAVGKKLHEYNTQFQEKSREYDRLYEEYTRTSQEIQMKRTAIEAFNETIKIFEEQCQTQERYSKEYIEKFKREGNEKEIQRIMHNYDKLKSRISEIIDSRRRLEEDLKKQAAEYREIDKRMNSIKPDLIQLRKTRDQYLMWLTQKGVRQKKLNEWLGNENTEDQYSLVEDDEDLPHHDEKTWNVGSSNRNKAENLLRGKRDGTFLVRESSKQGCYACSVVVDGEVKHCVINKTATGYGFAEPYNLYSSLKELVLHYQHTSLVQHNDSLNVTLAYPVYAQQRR
# Results are given in words; binding and its absence hold for the method and conditions named. Some results given as binding are weak or reduced against the parent protein; the word gives no strength.
# Molecular target: T1, murine p110δ catalytic subunit (murine) (UniProt O35904)
# T1 sequence: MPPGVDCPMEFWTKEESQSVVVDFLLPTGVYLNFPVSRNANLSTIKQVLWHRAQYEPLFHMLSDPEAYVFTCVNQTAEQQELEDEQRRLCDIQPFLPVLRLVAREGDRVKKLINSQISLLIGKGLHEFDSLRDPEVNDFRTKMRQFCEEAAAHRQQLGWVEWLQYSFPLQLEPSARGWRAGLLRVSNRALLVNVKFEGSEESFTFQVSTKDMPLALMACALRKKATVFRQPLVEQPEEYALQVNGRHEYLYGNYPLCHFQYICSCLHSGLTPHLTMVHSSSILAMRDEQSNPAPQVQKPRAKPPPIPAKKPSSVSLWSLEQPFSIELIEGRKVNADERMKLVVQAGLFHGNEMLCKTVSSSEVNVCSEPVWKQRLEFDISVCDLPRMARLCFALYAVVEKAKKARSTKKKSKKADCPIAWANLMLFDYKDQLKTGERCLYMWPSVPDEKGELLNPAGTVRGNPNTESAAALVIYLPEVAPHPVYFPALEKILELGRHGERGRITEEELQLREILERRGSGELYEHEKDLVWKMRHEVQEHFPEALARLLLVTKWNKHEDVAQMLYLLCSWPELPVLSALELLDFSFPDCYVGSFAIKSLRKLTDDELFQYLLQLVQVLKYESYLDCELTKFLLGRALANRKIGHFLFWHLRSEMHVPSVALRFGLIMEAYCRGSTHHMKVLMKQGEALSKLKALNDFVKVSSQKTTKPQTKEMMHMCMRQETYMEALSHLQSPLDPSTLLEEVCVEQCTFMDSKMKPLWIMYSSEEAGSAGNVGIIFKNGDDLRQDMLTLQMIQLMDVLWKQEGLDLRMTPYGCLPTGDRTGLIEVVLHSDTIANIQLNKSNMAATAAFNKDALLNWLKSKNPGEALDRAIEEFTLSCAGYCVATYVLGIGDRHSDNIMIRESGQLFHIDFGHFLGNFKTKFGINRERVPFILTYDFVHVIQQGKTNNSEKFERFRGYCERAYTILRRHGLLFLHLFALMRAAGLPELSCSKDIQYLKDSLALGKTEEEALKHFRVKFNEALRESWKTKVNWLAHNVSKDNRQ
# Assay: co-purification (Ni-NTA, SEC); p110 with N-terminal polyhistidine tag co-expressed with p85α in Sf21 cells; purified on a Ni-NTA FF column and buffer-exchanged on a KW2003 SEC column
substance,measurement,value
p85α regulatory subunit (from UniProt P27986 1-724),binding,binds
